Measurements taken from paper doi:10.1101/2025.01.09.632080.
No constants are given. Whether binding was seen depends on the method and setting. Binding seen in cells or lysates may run through a third protein. A yes stands for co-enrichment or nearness to the bait. Other partners may have been found. Where a sequence is shown, tags or fusion partners need not be part of it.

Sequences of proteins named here, by UniProt entry; tags and fusion partners are left off.
UniProt O60826: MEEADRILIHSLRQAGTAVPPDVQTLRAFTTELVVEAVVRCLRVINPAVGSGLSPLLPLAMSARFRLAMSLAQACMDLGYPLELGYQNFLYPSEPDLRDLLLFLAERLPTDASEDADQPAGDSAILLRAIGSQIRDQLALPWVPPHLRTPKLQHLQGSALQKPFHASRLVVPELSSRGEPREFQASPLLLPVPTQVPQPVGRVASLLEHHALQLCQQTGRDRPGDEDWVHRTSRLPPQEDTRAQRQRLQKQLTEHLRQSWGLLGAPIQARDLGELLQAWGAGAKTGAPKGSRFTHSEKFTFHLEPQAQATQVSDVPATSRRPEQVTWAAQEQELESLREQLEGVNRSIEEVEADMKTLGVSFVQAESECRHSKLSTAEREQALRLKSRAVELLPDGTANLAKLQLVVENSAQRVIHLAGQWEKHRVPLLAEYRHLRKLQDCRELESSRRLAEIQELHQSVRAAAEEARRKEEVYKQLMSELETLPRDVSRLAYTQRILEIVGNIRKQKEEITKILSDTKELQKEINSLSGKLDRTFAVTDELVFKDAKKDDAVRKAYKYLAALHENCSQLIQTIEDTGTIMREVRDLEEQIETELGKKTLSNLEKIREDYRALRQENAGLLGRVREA

Molecular target: T1, Flag-TRIM72 stably expressed in Hela cells (UniProt Q6ZMU5)
T1 sequence: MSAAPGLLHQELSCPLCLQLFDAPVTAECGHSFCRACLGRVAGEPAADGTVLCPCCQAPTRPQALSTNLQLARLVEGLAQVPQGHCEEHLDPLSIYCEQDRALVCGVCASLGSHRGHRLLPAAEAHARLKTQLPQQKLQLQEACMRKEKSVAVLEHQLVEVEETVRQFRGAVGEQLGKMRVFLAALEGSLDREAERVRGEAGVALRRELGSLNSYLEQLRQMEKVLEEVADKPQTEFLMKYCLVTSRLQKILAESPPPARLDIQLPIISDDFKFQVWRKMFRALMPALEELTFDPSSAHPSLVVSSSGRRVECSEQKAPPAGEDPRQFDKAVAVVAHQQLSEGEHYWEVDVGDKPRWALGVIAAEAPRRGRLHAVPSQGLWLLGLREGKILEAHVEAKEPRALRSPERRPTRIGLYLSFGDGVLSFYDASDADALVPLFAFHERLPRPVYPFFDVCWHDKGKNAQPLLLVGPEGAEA
Test: affinity purification with mass spectrometry

CCDC22, endogenous in Hela cells (from UniProt O60826 1-627)
binding: binds
